Test results: patent US8003083B2, “Benzylidene malonamide and salt thereof, ultraviolet ray absorbent, and agent for external application to the skin” (Shiseido Company, Ltd., priority 2006, dated 2011)

Tests used:
[1] = tested on: degree of sunburn after exposure to direct sunlight; assay: Ultraviolet prevention effect, actual use test on a beach in summer; format: in vivo, human
Method: An actual use test was conducted on a beach in summer. The same amount of sample was applied on the left and right halves of panelists' backs. The degree of sunburn after exposure to direct sunlight was evaluated based on the following criteria. The test was conducted with a group of 10 panelists.
Very effective: No or very little sunburn symptoms were observed.
Effective: A mild degree of sunburn symptoms were observed.
Not effective: A strong degree of sunburn symptoms were observed.
⊚: 80% or more of the subjects report “very effective” or “effective.”
◯: 50% or more and less than 80% of the subjects report “very effective” or “effective.”
∇: 30% or more and less than 50% of the subjects report “very effective” or “effective.”
X: Less than 30% of the subjects report “very effective” or “effective.”
(a) lotion and (b) cream were prepared according to the following recipes. For the ultraviolet absorbent, benzilidene malonamide (bis-N,N′-[2-(2-hydroxyethoxy)ethyl]-4-methoxybenzilidene malonamide) of the present invention and, as a Comparison example, a water soluble ultraviolet absorbent sodium 2-hydroxy-4-methoxy-5-sulfoquisonium benzophenone were used.
The water phase and the alcohol phase were separately prepared and then mixed together.
Propylene glycol and the ultraviolet absorbent were dissolved in ion-exchanged water and the temperature was raised to 70° C. and maintained. The other ingredients were mixed, heated and melted, and the temperature was maintained at 70° C. (oil phase). The oil phase was added to the water phase and pre-emulsification was conducted; after a homomixer was used to emulsify the mixture homogeneously, the temperature was cooled down to 30° C. while thorough stirring was maintained.

[2] = Photostability test, sunlight exposure; format: physicochemical; conditions: 290-400 nm integrated, after sunlight for two weeks, 80 MJ/m^2; water, 10 ppm, 1 cm
Method: A solution of the ultraviolet absorbent of the present invention was exposed to sunlight for two weeks (sunlight exposure level 80 MJ/m^2) and then the residual ratio and changes in the appearance were investigated and the ultraviolet absorption spectrum was measured (solvent: water, concentration 10 ppm, optical path length 1 cm) by using a spectrophotometer; the ultraviolet absorption spectrum was integrated over a range of 290-400 nm to obtain the area value, which was compared with the value before the sunlight exposure.
Changes in the residual ratio and the area value of the ultraviolet absorption spectrum were evaluated based on the following criteria.
Δ: 70% or more and less than 90% of the value before the sunlight exposure.
X: Less than 70% of the value before the sunlight exposure.

SMILES: COc1cc(O)c(C(=O)c2ccccc2)cc1S(=O)(=O)[O-].[Na+] [sodium 2-hydroxy-4-methoxy-5-sulfoxonium benzophenone, reference compound]
- Ultraviolet prevention effect ([1]; (a) Lotion, blend ratio 1, 10 panelists): Δ
- Ultraviolet prevention effect ([1]; (a) Lotion, blend ratio 5, 10 panelists): Δ
- Ultraviolet prevention effect ([1]; (b) Cream, blend ratio 1, 10 panelists): Δ
- Ultraviolet prevention effect ([1]; (b) Cream, blend ratio 5, 10 panelists): Δ
- Changes in the area value of the ultraviolet absorption spectrum [2]: ◯ (90% or more and less than 95% of the value before the sunlight exposure.)
